Laboratory results reported in publication PMC12147174, “PEX1^G843D remains functional in peroxisome biogenesis but is rapidly degraded by the proteasome” (The Journal of Biological Chemistry, 2025).

B1: PEX6 (human) (protein, UniProt Q13608 1-980)
chain: MALAVLRVLEPFPTETPPLAVLLPPGGPWPAAELGLVLALRPAGESPAGPALLVAALEGPDAGTEEQGPGPPQLLVSRALLRLLALGSGAWVRARAVRRPPALGWALLGTSLGPGLGPRVGPLLVRRGETLPVPGPRVLETRPALQGLLGPGTRLAVTELRGRARLCPESGDSSRPPPPPVVSSFAVSGTVRRLQGVLGGTGDSLGVSRSCLRGLGLFQGEWVWVAQARESSNTSQPHLARVQVLEPRWDLSDRLGPGSGPLGEPLADGLALVPATLAFNLGCDPLEMGELRIQRYLEGSIAPEDKGSCSLLPGPPFARELHIEIVSSPHYSTNGNYDGVLYRHFQIPRVVQEGDVLCVPTIGQVEILEGSPEKLPRWREMFFKVKKTVGEAPDGPASAYLADTTHTSLYMVGSTLSPVPWLPSEESTLWSSLSPPGLEALVSELCAVLKPRLQPGGALLTGTSSVLLRGPPGCGKTTVVAAACSHLGLHLLKVPCSSLCAESSGAVETKLQAIFSRARRCRPAVLLLTAVDLLGRDRDGLGEDARVMAVLRHLLLNEDPLNSCPPLMVVATTSRAQDLPADVQTAFPHELEVPALSEGQRLSILRALTAHLPLGQEVNLAQLARRCAGFVVGDLYALLTHSSRAACTRIKNSGLAGGLTEEDEGELCAAGFPLLAEDFGQALEQLQTAHSQAVGAPKIPSVSWHDVGGLQEVKKEILETIQLPLEHPELLSLGLRRSGLLLHGPPGTGKTLLAKAVATECSLTFLSVKGPELINMYVGQSEENVREVFARARAAAPCIIFFDELDSLAPSRGRSGDSGGVMDRVVSQLLAELDGLHSTQDVFVIGATNRPDLLDPALLRPGRFDKLVFVGANEDRASQLRVLSAITRKFKLEPSVSLVNVLDCCPPQLTGADLYSLCSDAMTAALKRRVHDLEEGLEPGSSALMLTMEDLLQAAARLQPSVSEQELLRYKRIQRKFAAC

Assays:
Assay in all cases: affinity purification with mass spectrometry; anti-FLAG M2 agarose eluates from HCT116 lysate (LB1 with ATPγS), TCA precipitated, trypsin, LC-MS/MS; total precursor intensity normalized to PEX1
[1] = biological target: T1, FLAG-PEX1^WT (human PEX1, N-terminal FLAG knock-in) (human (endogenous in HCT116)) (UniProt O43933)
T1 sequence: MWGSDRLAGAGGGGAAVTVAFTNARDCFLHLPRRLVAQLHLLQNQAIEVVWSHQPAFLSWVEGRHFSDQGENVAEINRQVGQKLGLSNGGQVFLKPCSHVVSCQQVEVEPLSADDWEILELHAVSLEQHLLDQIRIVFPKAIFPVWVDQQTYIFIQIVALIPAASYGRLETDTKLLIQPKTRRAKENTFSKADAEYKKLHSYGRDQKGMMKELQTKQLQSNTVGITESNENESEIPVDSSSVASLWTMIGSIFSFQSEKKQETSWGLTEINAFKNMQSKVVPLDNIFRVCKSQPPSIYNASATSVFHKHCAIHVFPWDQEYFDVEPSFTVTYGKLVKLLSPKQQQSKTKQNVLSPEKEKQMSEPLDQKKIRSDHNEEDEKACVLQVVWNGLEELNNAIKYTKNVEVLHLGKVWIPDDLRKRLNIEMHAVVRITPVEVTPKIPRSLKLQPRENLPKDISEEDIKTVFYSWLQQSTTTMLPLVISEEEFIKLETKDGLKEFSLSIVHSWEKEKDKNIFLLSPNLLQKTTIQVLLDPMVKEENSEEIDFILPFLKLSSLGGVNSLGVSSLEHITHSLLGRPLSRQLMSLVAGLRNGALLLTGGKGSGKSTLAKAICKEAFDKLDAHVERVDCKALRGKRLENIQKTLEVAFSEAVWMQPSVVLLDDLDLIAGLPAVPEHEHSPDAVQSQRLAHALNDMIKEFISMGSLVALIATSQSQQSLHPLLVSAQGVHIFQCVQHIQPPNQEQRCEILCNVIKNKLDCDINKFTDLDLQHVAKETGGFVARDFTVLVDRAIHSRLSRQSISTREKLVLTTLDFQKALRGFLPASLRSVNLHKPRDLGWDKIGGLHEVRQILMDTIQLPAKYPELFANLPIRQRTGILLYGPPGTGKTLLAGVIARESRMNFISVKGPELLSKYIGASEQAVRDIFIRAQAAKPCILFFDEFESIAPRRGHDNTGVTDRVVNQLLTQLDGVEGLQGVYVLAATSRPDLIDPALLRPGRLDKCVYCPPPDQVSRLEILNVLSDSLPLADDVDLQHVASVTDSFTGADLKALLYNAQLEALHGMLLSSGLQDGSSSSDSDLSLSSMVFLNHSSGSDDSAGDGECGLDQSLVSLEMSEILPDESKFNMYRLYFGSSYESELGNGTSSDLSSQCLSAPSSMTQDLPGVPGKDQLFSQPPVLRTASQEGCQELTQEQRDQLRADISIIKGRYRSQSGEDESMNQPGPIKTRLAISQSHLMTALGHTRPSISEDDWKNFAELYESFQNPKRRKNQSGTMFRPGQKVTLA

[2] = biological target: T1, FLAG-PEX1^WT (human PEX1, N-terminal FLAG knock-in) (human (endogenous in HCT116)); remark: listed apart in the source
[3] = biological target: T2, PEX1^WT-FLAG (human PEX1, C-terminal FLAG knock-in) (human (endogenous in HCT116)) (UniProt O43933)
T2 sequence: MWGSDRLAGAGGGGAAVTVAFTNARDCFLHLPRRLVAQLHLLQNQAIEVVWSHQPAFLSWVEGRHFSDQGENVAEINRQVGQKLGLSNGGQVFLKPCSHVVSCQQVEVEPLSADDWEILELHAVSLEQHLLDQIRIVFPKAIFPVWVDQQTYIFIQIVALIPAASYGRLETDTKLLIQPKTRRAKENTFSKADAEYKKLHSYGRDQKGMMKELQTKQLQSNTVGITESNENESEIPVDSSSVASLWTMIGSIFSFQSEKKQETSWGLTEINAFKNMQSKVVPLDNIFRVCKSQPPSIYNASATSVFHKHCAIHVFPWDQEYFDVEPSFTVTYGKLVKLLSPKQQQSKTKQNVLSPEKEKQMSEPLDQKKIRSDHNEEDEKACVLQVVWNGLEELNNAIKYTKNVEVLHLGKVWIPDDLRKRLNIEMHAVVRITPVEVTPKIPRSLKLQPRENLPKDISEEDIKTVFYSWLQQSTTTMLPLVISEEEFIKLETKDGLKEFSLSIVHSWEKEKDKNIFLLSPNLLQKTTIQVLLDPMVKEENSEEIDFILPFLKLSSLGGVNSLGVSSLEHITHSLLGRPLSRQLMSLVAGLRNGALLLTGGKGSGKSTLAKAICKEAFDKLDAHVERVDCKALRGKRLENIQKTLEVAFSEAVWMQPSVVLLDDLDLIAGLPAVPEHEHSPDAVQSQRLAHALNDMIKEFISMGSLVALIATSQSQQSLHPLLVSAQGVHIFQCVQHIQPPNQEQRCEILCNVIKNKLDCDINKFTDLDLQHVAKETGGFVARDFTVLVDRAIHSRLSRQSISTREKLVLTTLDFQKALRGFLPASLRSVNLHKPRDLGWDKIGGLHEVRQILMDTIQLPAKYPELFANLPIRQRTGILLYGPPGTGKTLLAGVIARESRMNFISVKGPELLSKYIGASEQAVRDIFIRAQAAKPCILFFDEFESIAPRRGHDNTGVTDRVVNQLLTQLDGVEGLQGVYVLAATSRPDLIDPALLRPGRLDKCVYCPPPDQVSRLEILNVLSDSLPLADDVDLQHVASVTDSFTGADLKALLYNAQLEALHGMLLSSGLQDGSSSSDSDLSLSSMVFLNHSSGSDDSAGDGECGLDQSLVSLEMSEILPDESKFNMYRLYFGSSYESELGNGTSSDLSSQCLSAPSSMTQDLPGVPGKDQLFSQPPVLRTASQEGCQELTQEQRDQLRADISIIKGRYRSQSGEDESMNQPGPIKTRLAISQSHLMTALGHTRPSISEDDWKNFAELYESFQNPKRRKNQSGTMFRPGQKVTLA

[4] = biological target: T3, PEX1^G843D-FLAG (human PEX1 G843D, C-terminal FLAG knock-in) (human (endogenous in HCT116)) (UniProt O43933)
T3 sequence: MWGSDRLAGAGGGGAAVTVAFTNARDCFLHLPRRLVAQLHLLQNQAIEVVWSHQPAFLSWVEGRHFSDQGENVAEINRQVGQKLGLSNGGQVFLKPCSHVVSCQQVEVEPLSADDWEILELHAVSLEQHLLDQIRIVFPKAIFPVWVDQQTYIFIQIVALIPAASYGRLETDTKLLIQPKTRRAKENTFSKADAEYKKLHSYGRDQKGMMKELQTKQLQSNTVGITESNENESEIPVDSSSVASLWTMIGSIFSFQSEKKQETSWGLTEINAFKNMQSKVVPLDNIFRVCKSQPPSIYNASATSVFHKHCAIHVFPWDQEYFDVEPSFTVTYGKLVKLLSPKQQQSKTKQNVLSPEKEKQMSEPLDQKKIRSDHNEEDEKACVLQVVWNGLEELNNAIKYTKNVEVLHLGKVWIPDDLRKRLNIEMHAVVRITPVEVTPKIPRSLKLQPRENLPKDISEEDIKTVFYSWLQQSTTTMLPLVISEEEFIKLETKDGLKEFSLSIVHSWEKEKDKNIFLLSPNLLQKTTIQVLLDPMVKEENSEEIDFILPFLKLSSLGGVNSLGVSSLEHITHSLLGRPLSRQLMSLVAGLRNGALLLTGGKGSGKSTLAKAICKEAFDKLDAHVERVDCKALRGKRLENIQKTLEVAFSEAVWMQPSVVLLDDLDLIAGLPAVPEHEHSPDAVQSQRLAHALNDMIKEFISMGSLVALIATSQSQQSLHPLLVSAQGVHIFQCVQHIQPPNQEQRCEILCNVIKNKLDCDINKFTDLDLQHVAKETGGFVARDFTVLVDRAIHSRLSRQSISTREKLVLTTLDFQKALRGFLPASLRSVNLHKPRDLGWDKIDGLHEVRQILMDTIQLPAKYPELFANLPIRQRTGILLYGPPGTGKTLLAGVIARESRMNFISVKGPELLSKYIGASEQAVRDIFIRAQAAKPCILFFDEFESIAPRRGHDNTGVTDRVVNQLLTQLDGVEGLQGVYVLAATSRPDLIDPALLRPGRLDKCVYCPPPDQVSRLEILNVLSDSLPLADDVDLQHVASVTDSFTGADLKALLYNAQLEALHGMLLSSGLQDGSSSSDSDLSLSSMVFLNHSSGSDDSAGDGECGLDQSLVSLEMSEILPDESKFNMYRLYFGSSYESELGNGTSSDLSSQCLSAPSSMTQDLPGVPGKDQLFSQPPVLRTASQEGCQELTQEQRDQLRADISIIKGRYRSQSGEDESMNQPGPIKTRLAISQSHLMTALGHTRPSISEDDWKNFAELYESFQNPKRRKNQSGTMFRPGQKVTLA

Row | Molecule | binding [1] | binding [2] | binding [3] | binding [4]
1 | p97 (human) (from UniProt P55072 1-806) (enzyme) | binds |  |  | 
2 | B1 |  | binds | binds | binds

Like-named read-outs stand apart in the source and are kept apart here. These are yes or no findings as the source states them, for the method shown. Binding seen in cells or lysates may run through a third protein. A yes stands for co-enrichment or nearness to the bait. Other partners may have been found. Sequences can lack the tags named with a protein.
